Two substances from PMC7586679 can be followed below.

Chains of the proteins cited; added tags and fusions are not shown. Lines headed by an entry give the natural chain unless they say otherwise; changes in a name come on top.
UniProt O43791: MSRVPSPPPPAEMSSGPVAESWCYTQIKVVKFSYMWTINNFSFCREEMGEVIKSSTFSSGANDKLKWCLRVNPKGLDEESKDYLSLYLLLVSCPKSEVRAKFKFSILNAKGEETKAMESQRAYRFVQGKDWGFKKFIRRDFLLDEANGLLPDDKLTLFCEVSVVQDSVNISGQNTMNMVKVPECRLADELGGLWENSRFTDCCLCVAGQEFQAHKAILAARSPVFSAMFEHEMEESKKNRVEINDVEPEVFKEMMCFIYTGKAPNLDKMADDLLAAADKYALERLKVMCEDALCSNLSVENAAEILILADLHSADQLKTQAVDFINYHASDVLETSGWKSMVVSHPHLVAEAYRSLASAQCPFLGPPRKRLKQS
UniProt P01106: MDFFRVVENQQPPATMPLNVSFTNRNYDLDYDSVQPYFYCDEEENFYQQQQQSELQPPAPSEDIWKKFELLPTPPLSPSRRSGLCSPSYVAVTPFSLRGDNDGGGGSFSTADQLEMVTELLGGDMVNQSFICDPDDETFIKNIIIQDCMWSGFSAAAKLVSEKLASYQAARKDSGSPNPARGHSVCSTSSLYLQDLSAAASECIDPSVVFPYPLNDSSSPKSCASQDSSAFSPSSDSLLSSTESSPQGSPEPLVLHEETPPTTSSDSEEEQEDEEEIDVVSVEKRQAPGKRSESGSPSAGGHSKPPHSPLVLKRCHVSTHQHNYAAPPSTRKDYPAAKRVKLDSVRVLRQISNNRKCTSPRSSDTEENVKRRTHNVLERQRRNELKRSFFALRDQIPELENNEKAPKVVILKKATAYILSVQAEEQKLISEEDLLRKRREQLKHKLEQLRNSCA

For one test, the target named is HA-tagged SPOP (WT) (UniProt O43791). Put plainly: co-IP; 293T cells transfected 24 h with SPOP WT and FLAG-c-Myc or ΔSBC1/ΔSBC2; Bortezomib (250 nM) for 6 h; total cell lysates; IP with anti-FLAG or anti-SPOP antibodies.
In test [1] the target is speckle-type POZ (SPOP) (human (endogenous in 143B)) (UniProt O43791). As to the kind of experiment: co-IP; 143B cells with or without CircECE1 knockdown; which protein was precipitated is not told.

Results are given in words; binding and its absence hold for the method and conditions named. Binding seen in cells or lysates may run through a third protein. Some entries that bind do so weakly or less than the wild type.

As to “FLAG-c-Myc (WT) (from UniProt P01106-2 1-454)”, the binding result in the test with HA-tagged SPOP (WT) was “binds”. For c-Myc (from UniProt P01106 1-454), the binding entry in test [1] is listed as “binds”.
